The source of these data is PMC10703869.

The target of assay [1] is T1, HSPA13 (human (endogenous in Huh-7 and SK-Hep-1)) (UniProt P48723).
T1 sequence: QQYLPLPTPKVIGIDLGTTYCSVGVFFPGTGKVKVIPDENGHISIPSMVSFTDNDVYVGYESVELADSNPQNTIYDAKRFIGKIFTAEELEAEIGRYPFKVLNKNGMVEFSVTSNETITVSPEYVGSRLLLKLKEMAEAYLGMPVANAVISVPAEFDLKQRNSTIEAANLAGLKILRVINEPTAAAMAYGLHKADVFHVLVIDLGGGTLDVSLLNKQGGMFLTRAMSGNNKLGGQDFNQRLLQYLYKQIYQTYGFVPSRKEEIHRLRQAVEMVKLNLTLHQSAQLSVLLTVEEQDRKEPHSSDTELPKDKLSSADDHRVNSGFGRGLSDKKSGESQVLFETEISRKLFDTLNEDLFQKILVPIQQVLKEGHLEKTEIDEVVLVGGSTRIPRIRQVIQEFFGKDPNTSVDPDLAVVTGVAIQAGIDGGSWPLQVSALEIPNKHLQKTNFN
The experiment in a line: co-IP; endogenous HSPA13 and TANK in Huh-7 and SK-Hep-1 cell lysates; anti-HSPA13 or anti-TANK antibody or control IgG with Dynabeads Protein G, overnight at 4 °C; western blot. For orientation: A western blot detects proteins with antibodies after separation by electrophoresis.

Assay [2] deals with T2, HSPA13 (human (endogenous in Huh-7 and SK-Hep-1)), P48723.
T2 chain: T1 sequence
The experiment in a line: co-IP; HYOU1 and FBX6 tested against HSPA13 (Supplementary Fig. 2B and C); cells and antibodies for these partners not given; cell lysates, Dynabeads Protein G, overnight at 4 °C; western blot. Conditions: remark: other sources report otherwise.

Results are given in words; binding and its absence hold for the method and conditions named. Binding seen in cells or lysates may run through a third protein. Some results given as binding are weak or reduced against the parent protein; the word gives no strength.

B1: TANK (TRAF family member-associated NF-kappa-B activator) (protein, UniProt Q92844 1-425)
chain: MDKNIGEQLNKAYEAFRQACMDRDSAVKELQQKTENYEQRIREQQEQLSLQQTIIDKLKSQLLLVNSTQDNNYGCVPLLEDSETRKNNLTLDQPQDKVISGIAREKLPKVRRQEVSSPRKETSARSLGSPLLHERGNIEKTFWDLKEEFHKICMLAKAQKDHLSKLNIPDTATETQCSVPIQCTDKTDKQEALFKPQAKDDINRGAPSITSVTPRGLCRDEEDTSFESLSKFNVKFPPMDNDSTFLHSTPERPGILSPATSEAVCQEKFNMEFRDNPGNFVKTEETLFEIQGIDPIASAIQNLKTTDKTKPSNLVNTCIRTTLDRAACLPPGDHNALYVNSFPLLDPSDAPFPSLDSPGKAIRGPQQPIWKPFPNQDSDSVVLSGTDSELHIPRVCEFCQAVFPPSITSRGDFLRHLNSHFNGET
Regarding B1, the binding entry in assay [1] is “binds”.

B2: HYOU1, Q9Y4L1 33-999 (protein)
chain: LAVMSVDLGSESMKVAIVKPGVPMEIVLNKESRRKTPVIVTLKENERFFGDSAASMAIKNPKATLRYFQHLLGKQADNPHVALYQARFPEHELTFDPQRQTVHFQISSQLQFSPEEVLGMVLNYSRSLAEDFAEQPIKDAVITVPVFFNQAERRAVLQAARMAGLKVLQLINDNTATALSYGVFRRKDINTTAQNIMFYDMGSGSTVCTIVTYQMVKTKEAGMQPQLQIRGVGFDRTLGGLEMELRLRERLAGLFNEQRKGQRAKDVRENPRAMAKLLREANRLKTVLSANADHMAQIEGLMDDVDFKAKVTRVEFEELCADLFERVPGPVQQALQSAEMSLDEIEQVILVGGATRVPRVQEVLLKAVGKEELGKNINADEAAAMGAVYQAAALSKAFKVKPFVVRDAVVYPILVEFTREVEEEPGIHSLKHNKRVLFSRMGPYPQRKVITFNRYSHDFNFHINYGDLGFLGPEDLRVFGSQNLTTVKLKGVGDSFKKYPDYESKGIKAHFNLDESGVLSLDRVESVFETLVEDSAEEESTLTKLGNTISSLFGGGTTPDAKENGTDTVQEEEESPAEGSKDEPGEQVELKEEAEAPVEDGSQPPPPEPKGDATPEGEKATEKENGDKSEAQKPSEKAEAGPEGVAPAPEGEKKQKPARKRRMVEEIGVELVVLDLPDLPEDKLAQSVQKLQDLTLRDLEKQEREKAANSLEAFIFETQDKLYQPEYQEVSTEEQREEISGKLSAASTWLEDEGVGATTVMLKEKLAELRKLCQGLFFRVEERKKWPERLSALDNLLNHSSMFLKGARLIPEMDQIFTEVEMTTLEKVINETWAWKNATLAEQAKLPATEKPVLLSKDIEAKMMALDREVQYLLNKAKFTKPRPRPKDKNGTRAEPPLNASASDQGEKVIPPAGQTEDAEPISEPEKVETGSEPGDTEPLELGGPGAEPEQKEQSTGQKRPLKNDEL
As to B2, in assay [2], the binding result was “no binding”.
